{"source": "PubChem BioAssay AID1159584 | Peter MacCallum Cancer Centre, 2016", "aim": "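Knock-downs that harm CDH1-null cells more than parental MCF10A cells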 (primary screen)", "system": "human MCF10A breast epithelial cells, parental and CDH1-null", "reagent": "siRNA against human genes", "read-out": "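Cell viability by CellTiter-Glo ATP luminescence, each line scaled to the mean of mock wells across plates, then CDH1-null over parental ratio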", "scale": "CDH1-null / parental viability ratio: higher = CDH1-null cells survive relatively better than parental", "note": "In all, the deposit lists about 18,000 reagents; shown is a random part of them. Not all columns of the deposit are shown. Not stated in the record: the amount of reagent, the time to read-out."}
{"Target gene": "A2M", "CDH1-null / parental viability ratio": 0.87}
{"Target gene": "WSB1", "CDH1-null / parental viability ratio": 0.89}
{"Target gene": "MPEG1", "CDH1-null / parental viability ratio": 1.08}
{"Target gene": "PRSS45P", "CDH1-null / parental viability ratio": 0.82}
{"Target gene": "EPS8", "CDH1-null / parental viability ratio": 1.2}
{"Target gene": "WASF2", "CDH1-null / parental viability ratio": 1.08}
{"Target gene": "MTOR", "CDH1-null / parental viability ratio": 1.27}
{"Target gene": "CYB5D2", "CDH1-null / parental viability ratio": 1.2}
{"Target gene": "HELT", "CDH1-null / parental viability ratio": 0.92}
{"Target gene": "ATP6V1G2", "CDH1-null / parental viability ratio": 1}
{"Target gene": "PLPPR2", "CDH1-null / parental viability ratio": 0.71}
{"Target gene": "HOXC8", "CDH1-null / parental viability ratio": 1.01}
{"Target gene": "AVPR1B", "CDH1-null / parental viability ratio": 0.77}
{"Target gene": "CAPN6", "CDH1-null / parental viability ratio": 0.95}
